Experimental data published in publication PMC2994771.
No constants are given. Whether binding was seen depends on the method and setting. In cells and extracts the contact can be indirect. Some binding calls cover weakened binding; strength is not graded here.

Protein sequences, listed by entry. Tags and fused reporters are not part of them. Lines headed by an entry give the natural chain unless they say otherwise; changes in a name come on top.
UniProt P08069: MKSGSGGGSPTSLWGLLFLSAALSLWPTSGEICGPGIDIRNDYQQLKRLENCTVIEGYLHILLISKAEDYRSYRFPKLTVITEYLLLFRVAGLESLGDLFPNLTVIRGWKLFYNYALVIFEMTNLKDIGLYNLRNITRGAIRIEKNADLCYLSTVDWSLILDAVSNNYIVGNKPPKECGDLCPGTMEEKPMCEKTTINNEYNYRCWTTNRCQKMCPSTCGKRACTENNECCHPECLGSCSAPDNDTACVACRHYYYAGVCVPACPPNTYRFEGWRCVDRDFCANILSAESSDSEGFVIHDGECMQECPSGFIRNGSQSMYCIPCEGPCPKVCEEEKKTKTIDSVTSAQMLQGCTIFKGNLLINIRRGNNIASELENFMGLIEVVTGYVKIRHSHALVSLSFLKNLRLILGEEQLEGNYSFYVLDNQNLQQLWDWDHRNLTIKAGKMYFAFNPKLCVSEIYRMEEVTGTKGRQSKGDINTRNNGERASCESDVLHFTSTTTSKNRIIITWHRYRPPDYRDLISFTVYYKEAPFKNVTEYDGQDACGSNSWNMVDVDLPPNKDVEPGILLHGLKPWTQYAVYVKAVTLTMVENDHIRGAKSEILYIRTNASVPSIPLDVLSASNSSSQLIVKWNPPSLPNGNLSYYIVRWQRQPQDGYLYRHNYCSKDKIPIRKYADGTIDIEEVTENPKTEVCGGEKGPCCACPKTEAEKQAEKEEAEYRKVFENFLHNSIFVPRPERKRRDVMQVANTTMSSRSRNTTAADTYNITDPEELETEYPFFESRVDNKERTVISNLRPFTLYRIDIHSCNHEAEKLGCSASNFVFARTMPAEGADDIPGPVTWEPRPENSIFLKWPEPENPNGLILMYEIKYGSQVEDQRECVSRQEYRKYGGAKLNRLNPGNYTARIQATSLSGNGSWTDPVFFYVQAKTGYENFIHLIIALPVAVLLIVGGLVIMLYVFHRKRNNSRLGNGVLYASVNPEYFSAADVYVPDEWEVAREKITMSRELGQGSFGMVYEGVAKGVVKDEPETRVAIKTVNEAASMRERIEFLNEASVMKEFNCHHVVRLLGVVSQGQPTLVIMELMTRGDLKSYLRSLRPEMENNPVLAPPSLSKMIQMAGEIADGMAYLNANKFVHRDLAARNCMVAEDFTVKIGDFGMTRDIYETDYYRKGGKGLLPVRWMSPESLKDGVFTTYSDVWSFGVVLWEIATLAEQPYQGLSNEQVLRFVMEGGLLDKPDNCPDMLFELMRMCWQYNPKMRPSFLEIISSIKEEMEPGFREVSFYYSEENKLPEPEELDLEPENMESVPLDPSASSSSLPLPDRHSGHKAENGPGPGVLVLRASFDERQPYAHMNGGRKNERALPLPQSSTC

Key:
[1] = target: Insulin-like growth factor-I receptor (IGF-IR) (human (endogenous in HaCat)), P08069; experiment: co-IP; serum-starved HaCat cells stimulated with IGF1 10 nM for the indicated times, lysed in Na2CO3 0.5 M (pH 11); reciprocal immunoprecipitations of endogenous proteins, immunoblot; conditions: remark: other sources report otherwise
[2] = target: Insulin-like growth factor-I receptor (IGF-IR) (human (endogenous in HaCat)) (UniProt P08069); experiment: as above

B1: Caveolin-1 (Cav-1), Q03135-1 1-178 (protein)
chain: MSGGKYVDSEGHLYTVPIREQGNIYKPNNKAMADELSEKQVYDAHTKEIDLVNRDPKHLNDDVVKIDFEDVIAEPEGTHSFDGIWKASFTTFTVTKYWFYRLLSALFGIPMALIWGIYFAILSFLHIWAVVPCIKSFLIEIQCISRVYSIYVHTVCDPLFEAVGKIFSNVRINLQKEI
binding [1]: binds

B2: Polymerase I and Transcript Release Factor (PTRF/Cavin) (protein, UniProt Q6NZI2-1 1-390)
chain: MEDPTLYIVERPLPGYPDAEAPEPSSAGAQAAEEPSGAGSEELIKSDQVNGVLVLSLLDKIIGAVDQIQLTQAQLEERQAEMEGAVQSIQGELSKLGKAHATTSNTVSKLLEKVRKVSVNVKTVRGSLERQAGQIKKLEVNEAELLRRRNFKVMIYQDEVKLPAKLSISKSLKESEALPEKEGEELGEGERPEEDAAALELSSDEAVEVEEVIEESRAERIKRSGLRRVDDFKKAFSKEKMEKTKVRTRENLEKTRLKTKENLEKTRHTLEKRMNKLGTRLVPAERREKLKTSRDKLRKSFTPDHVVYARSKTAVYKVPPFTFHVKKIREGQVEVLKATEMVEVGADDDEGGAERGEAGDLRRGSSPDVHALLEITEESDAVLVDKSDSD
binding [2]: binds
